# Article PMC5225440
# Chains of the proteins cited; added tags and fusions are not shown.
# UniProt O14974: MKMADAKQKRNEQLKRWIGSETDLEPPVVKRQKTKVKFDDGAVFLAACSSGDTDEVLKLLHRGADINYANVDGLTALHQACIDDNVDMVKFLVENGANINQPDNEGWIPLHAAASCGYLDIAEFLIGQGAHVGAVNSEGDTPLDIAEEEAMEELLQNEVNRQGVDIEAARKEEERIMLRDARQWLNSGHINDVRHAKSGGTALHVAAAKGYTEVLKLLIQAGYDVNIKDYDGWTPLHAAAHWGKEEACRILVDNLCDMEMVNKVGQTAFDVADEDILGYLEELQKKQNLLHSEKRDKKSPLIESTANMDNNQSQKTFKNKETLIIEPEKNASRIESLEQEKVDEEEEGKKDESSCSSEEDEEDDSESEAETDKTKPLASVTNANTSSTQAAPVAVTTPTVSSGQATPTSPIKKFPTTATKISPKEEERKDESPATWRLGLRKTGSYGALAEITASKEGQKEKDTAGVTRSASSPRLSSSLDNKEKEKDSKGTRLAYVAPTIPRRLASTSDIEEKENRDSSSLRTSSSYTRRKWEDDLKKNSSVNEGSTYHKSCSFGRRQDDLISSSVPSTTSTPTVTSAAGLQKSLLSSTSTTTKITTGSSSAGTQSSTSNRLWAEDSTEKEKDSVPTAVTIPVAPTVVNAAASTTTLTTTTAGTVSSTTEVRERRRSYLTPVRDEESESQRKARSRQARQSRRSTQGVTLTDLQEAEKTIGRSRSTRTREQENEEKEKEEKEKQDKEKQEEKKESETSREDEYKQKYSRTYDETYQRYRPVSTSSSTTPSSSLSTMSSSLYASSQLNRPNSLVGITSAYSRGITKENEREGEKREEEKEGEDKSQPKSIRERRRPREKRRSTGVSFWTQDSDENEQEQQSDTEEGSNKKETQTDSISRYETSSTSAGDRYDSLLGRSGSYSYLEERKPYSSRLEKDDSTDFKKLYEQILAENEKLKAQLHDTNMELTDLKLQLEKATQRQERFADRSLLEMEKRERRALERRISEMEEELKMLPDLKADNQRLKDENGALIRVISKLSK
# UniProt O14744: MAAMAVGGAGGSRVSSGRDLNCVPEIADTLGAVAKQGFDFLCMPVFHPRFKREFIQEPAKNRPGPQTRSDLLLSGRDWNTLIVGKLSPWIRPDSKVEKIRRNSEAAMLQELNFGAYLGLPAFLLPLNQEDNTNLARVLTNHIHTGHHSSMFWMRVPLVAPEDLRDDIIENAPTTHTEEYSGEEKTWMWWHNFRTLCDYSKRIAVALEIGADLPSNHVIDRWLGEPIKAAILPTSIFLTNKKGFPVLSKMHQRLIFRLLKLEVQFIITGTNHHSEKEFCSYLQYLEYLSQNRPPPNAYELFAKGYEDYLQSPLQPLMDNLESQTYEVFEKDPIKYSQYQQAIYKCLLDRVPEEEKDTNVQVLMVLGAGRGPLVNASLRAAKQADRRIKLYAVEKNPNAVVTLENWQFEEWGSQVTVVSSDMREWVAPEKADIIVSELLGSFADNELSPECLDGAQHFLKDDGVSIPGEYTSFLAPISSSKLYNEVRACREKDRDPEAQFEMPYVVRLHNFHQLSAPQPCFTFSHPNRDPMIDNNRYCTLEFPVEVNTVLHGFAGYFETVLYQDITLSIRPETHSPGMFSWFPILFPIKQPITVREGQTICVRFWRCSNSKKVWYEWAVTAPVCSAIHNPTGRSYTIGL
# Results are given in words; binding and its absence hold for the method and conditions named. In cells and extracts the contact can be indirect. Some binding calls cover weakened binding; strength is not graded here.
# Target: Myosin phosphatase target subunit 1 (MYPT1), endogenous in HepG2 (human (endogenous in HepG2)) (UniProt O14974)
# Test: co-IP; endogenous proteins of HepG2 cells; anti-MYPT1^1-296 and anti-PRMT5 antibodies on Protein-A Sepharose, non-immune rabbit serum as control; Western blot
substance,measurement,value
"Protein arginine methyltransferase 5 (PRMT5), endogenous in HepG2 (from UniProt O14744 1-637)",binding,binds
